The text below walks through data of patent US20140302055A1.

Sequences of proteins named here, by UniProt entry; tags and fusion partners are left off. A change or cut given only in a name is not applied to a line headed by its entry.
UniProt Q9BY76: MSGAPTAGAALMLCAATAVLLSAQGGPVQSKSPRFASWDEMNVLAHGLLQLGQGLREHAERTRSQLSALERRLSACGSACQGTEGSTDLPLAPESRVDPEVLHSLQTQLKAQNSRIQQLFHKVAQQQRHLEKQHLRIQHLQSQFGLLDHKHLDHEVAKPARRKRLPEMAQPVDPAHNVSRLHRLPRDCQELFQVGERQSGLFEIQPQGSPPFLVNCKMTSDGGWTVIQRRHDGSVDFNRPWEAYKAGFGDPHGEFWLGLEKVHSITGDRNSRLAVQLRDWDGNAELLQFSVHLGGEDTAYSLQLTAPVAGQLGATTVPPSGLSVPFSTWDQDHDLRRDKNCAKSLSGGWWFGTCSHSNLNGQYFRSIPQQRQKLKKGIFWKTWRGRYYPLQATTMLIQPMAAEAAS

Results are given in words; binding and its absence hold for the method and conditions named. A result given as binding can be weak or reduced; the word gives no strength.

The target in assay [1] is Angiopoietin-like protein 4 (ANGPTL4), recombinant V5-his tagged secreted product (UniProt Q9BY76). The experiment in a line: ELISA, coated ANGPTL4, hybridoma supernatant, hIgG detection.
For assay [2] the target is unchanged. The experiment in a line: ELISA, coated ANGPTL4, hybridoma supernatant, hK detection.

B1: anti-ANGPTL4 monoclonal antibody 2.2.1 (antibody, human IgG2, V domains shown)
VH: EVQLVESGGGLVKPGGSLRLSCAASGFTFSSYSMNWVRQAPGKGLEWVSSISSSSTYIYYADSVKGRFTISRDNAKNSLYLQMNSLRAEDTAVYYCARDGAIFGVVNWYFDLWGRGT
VL: EIVLTQSPDFQSVTPKEKVTITCRASQSIGSSLHWYQQKPDQSPKLLIKYASQSFSGVPSRFSGSGSGTDFTLTINSLEAEDAATYYCHQSSNLPHTFGPGTKVDIKR
As for B1, the binding entry in assay [1] and in assay [2] was “binds” in each case.

B2: anti-ANGPTL4 monoclonal antibody 2.5.1 (antibody, human IgG2, V domains shown)
VH: EVQLVESGGGLVKPGGSLRLSCAASGFTFSSYSMNWVRQAPGKGLEWVSSISSSSSYIYYADSVKGRFTISRDNAKNSLYLQMNSLRAEDTAVYYCARDGAIFGVVNWYFDLWGRGT
VL: EIVLTQSPDFQSVTPKEKVTITCRASQSIGSSLHWYQLKPDQSPKLLIKYVSQSFSGVPSRFSGSGSGTDFTLTISSLEAEDAATYCCHQSSSLPHTFGPGTKVDINR
As to B2, the binding entry in assay [1] and in assay [2] was “binds” each time.

B3: anti-ANGPTL4 monoclonal antibody 2.4.1 (antibody, human IgG2, V domains shown)
VH: QVQLQESGPGLVKPSETLSLTCIVSGDSISGYYWSWIRQPAGKGLEWIGRIYTSGNTIYNPSLKSRVTMSVDTSKNQFSLKLSSVTAADTAVYYCARERPDYGGNFFDYWGQGTLVTVSS
VL: EIVLTQSPDFQSVTPKEKVTITCRASQSIGSSLHWYQQKPDQSPKLLIKHASQSFSGVPSRFSGSGSGTDFTLTINSLEAEDAATYYCHQSSSLPHTFGGGTKVEIKR
Consider B3, for which the binding result in assay [1] and in assay [2] was “binds” in each case.

B4: anti-ANGPTL4 monoclonal antibody 1.7.1 (antibody, human IgG2, V domains shown)
VH: QVQLVESGGGVVQPGRSLRLSCAASGFTFSSYGIHWIRQAPGKGLEWVAVIWYDGSHKYYADSVKGRFTISRDNSKNTLYLQMNSLRAEDTAVYYCARDGITMVRGVLYYFYGMDVWGQGTTVTVSS
VL: DIQMTQSPSSLSASVGDRVTITCRASQGISNYLAWYQQKPGKVPKLLIYAASTLQSGVPSRFSGSGSGTDFTLTISSLQPEDFATYYCQEFNSAPLTFGGGTKVEIKR
As for B4, the binding entry in assay [1] and in assay [2] was “binds” throughout.

B5: anti-ANGPTL4 monoclonal antibody 1.7.3 (antibody, human IgG2, V domains shown)
VH: QVQLVESGGGVVQPGRSLRLSCAASGFTFSSYGIHWIRQAPGKGLEWVAVIWYDGSHKYYADSVKGRFTISRDNSKNTLYLQMNSLRAEDTAVYYCARDGITMVRGVLYYFYGMDVWGQGTTVTVSS
VL: DIQMTQSPSSLSASVGDRVTITCRASQGISNYLAWYQQKPGKVPKLLIYAASTLQSGVPSRFSGSGSGTDFTLTISSLQPEDFATYYCQEFNSAPLTFGGGTKVEIKR
In the case of B5, the binding result in assay [1] and in assay [2] was “binds” in each case.

B6: anti-ANGPTL4 monoclonal antibody 2.3.1 (antibody, human IgG2, V domains shown)
VH: QVQLVQSGPEVKKPGASVKVSCKASGYTFTSYGINWVRQAPGQGLEWMGWIGTYNGNRNYAQKLQGRVTMTTDTSTSTAYMELRSLRSDDTAVYYCARDDFWSGYYDYFDYWGQGTLVTVSS
VL: DIQMTQSPSSLSASVGDRVTITCRASQDINNYLAWYQQKPGKVPKLLIYAASTLQSGVPSRFSGSGSGTDFTLSISSLQPEDVATYYCQKYNSAPRTFGQGTKVEIKR
In the case of B6, the binding result in assay [1] and in assay [2] was “binds” each time.

B7: anti-ANGPTL4 monoclonal antibody 1.7.2 (antibody, human IgG2, V domains shown)
VH: QVQLVESGGGVVQPGRSLRLSCAASGFTFSSYGIHWIRQAPGKGLEWVAVIWYDGSHKYYADSVKGRFTISRDNSKNTLYLQMNSLRAEDTAVYYCARDGITMVRGVLYYFYGMDVWGQGTTVTVSS
VL: DIQMTQSPSSLSASVGDRVTITCRASQGISNYLAWYQQKPGKVPKLLIYAASTLQSGVPSRFSGSGSGTDFTLTISSLQPEDFATYYCQEFNSAPLTFGGGTKVEIKR
As to B7, the binding result in assay [1] and in assay [2] was “binds” in each case.

B8: anti-ANGPTL4 monoclonal antibody 1.10.1 (antibody, human IgG2, V domains shown)
VH: QVQLVQSGAEVKKPGASVKDSCKASGFTFTSYGISWVRQAPGQGLEWMGWISAYNGNKNYAQKLQGRVTMTTDTSTSTAYMELRSLRSDDTAVYYCARDDCSRASCSYYYGMDVWGQGTAVTVSS
VL: DIVMTQTPLSLAVTPGQPASISCKSSQSLLHSDRKTYLYWYLQKPGQPPQLLIYEVSNRFSGVPDRFSGSGSGTDFTLKISRVEAEDVGVYYCMQSIQLPWTFGQGTKVEIKR
In the case of B8, the binding entry in assay [1] and in assay [2] was “binds” each time.

B9: anti-ANGPTL4 monoclonal antibody 1.10.2 (antibody, human IgG2, V domains shown)
VH: QVQLVQSGAEVKKPGASVKDSCKASGFTFTSYGISWVRQAPGQGLEWMGWISAYNGNKNYAQKLQGRVTMTTDTSTSTAYMELRSLRSDDTAVYYCARDDCSRASCSYYYGMDVWGQGTAVTVSS
VL: DIVMTQTPLSLAVTPGQPASISCKSSQSLLHSDRKTYLYWYLQKPGQPPQLLIYEVSNRFSGVPDRFSGSGSGTDFTLKISRVEAEDVGVYYCMQSIQLPWTFGQGTKVEIKR
Take B9: the binding result in assay [1] and in assay [2] was “binds” each time.

B10: anti-ANGPTL4 monoclonal antibody 1.10.3 (antibody, human IgG2, V domains shown)
VH: QVQLVQSGAEVKKPGASVKDSCKASGFTFTSYGISWVRQAPGQGLEWMGWISAYNGNKNYAQKLQGRVTMTTDTSTSTAYMELRSLRSDDTAVYYCARDDCSRASCSYYYGMDVWGQGTAVTVSS
VL: DIVMTQTPLSLAVTPGQPASISCKSSQSLLHSDRKTYLYWYLQKPGQPPQLLIYEVSNRFSGVPDRFSGSGSGTDFTLKISRVEAEDVGVYYCMQSIQLPWTFGQGTKVEIKR
With B10, the binding result in assay [1] and in assay [2] was “binds” each time.
